Measurements as given in paper PMC8927968, “Lysine Methylation Modulates the Interaction of Archaeal Chromatin Protein Cren7 With DNA”.
For at least one entry, the source does not settle the construct or the ends of the probe.

Amino acid sequences for entries named in this document (tags omitted).
UniProt C3NHU3, whole entry, stated change not applied: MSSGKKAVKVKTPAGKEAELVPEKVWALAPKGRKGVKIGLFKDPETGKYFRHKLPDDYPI

Molecular target: Cren7ΔaKMT (native, unmethylated) (Sulfolobus islandicus ΔaKMT) (UniProt C3NHU3)
Test: BLI
Settings: BLI: 20 mM Tris-HCl pH 6.8, 100 mM KCl, 1 mM EDTA, 0.05% Tween-20, 30°C; native protein; label: 5' biotin on strand 1

## TAGAGCCCTAGTCTTCCAAACTAGCTACGC (double strand) [D30]
  Kd: 165 nM
